The other results are listed elsewhere or left out. These are further read-outs of the screen, such as a control signal, another cell line or another target. No call is given for them. Most of these compounds were active or inconclusive in the main read-out, so they are no random draw. Words in brackets tell the shape of the fitted curve; partial curves, single points and poor fits give uncertain potencies.
Assay: qHTS Assay to Find Inhibitors of Chronic Active B-Cell Receptor Signaling
Conditions: ABC-DLBCL IkBa-CBG/CBR reporter, luminescence ratio (green luciferase fused to IkBa over red control in TMD8 lymphoma cells), 4 h
Procedure, shortened: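 Cell line TMD8 (human ABC DLBCL), stably expressing tet-inducible CBG68-IkBa fusion and CBR; IMDM/0.5% FBS; cpd up to 46 uM; dox induction, 4 h, 37C/5% CO2; dual luminescence; green/red ratio; MG132 control.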

[1] = measured here: CBR red luminescence, cell number
[2] = measured here: IkBa-CBG green luminescence

SMILES | AC50 [1] | AC50 [2]
Cc1cccc(N2CC(C(=O)NCCC3=CCCCC3)CC2=O)c1C (configuration not stated) | 32.6 µM [falling, single point] | –
CCC/C(=N\NC(=O)c1ccccc1C)c1ccccc1 | 9.2 µM [falling, partial curve] | –
CCOC(=O)C1=C(C)Nc2ccccc2N=C1NC(=O)C(c1ccccc1)c1ccccc1 | 17.8 µM [falling, single point] | –
C(=N\n1cnnc1)/c1ccccc1OCCOc1ccccc1 | 5.01 µM [rising, full curve, poor fit] | –
Cc1ccc2c(COC(=O)c3n[nH]c4ccccc34)cc(=O)oc2c1 | 0.562 µM [falling, full curve] | –
COc1ccc(C)cc1NC(=O)CSc1nc(=O)[nH]c2c1CCCC2 | 0.316 µM [falling, full curve] | –
Cc1cccc(NC(=O)CSc2nc3ccccc3nc2N2CCCC2)c1 | 15.8 µM [falling, single point] | –
Cc1ccsc1/C=N/n1c(-c2ccccc2)n[nH]c1=S | 0.82 µM [falling, full curve, poor fit] | –
COc1ccc2nc(N3CCCC3)c(C#N)cc2c1 | 18.4 µM [rising, single point] | –
COc1ccc(/C=N/NC(=O)c2[nH]c3ccc(Br)cc3c2-c2ccccc2)cc1 | 1.84 µM [rising, partial curve, poor fit] | 1.64 µM [falling, full curve]
O=C(CSC1=N/C(=C/c2ccc(Cl)c(Cl)c2)C(=O)N1c1ccccc1F)NC1CC1 | 0.731 µM [rising, partial curve, poor fit] | –
CN(C)c1ccc(/C=C/C(=O)c2cc(Cl)ccc2O)cc1 | 4.47 µM [rising, full curve, poor fit] | –
CCCn1nc(Oc2nc(N(C)C)nc(N(C)C)n2)ccc1=O | 35.5 µM [rising, single point] | 8.91 µM [falling, partial curve, poor fit]
Cc1cccnc1NC(=O)CSc1nnc(COc2ccc(C(C)C)cc2)n1C | 3.66 µM [rising, partial curve] | –
Cc1cnn(CCC(=O)NNC(=S)NCC(C)C)c1 | – | 23.1 µM [falling, partial curve]
CCn1c(C)c2c([n+]1CC)CC(C)(C)CC2=O | 6.51 µM [falling, single point] | –
Cc1cccc2c(=O)c(C(=O)NCCc3ccccc3)c[nH]c12 | 14.1 µM [falling, single point] | –
COc1ccccc1Nc1cc(C)nc(Nc2ccccc2OC)n1 | 23.1 µM [falling, single point] | –
CC(=O)Nc1ccccc1OCc1nnc(-c2cccs2)o1 | 4.11 µM [rising, single point] | –
CCN(CC(=O)Nc1c(F)cccc1F)C(=O)CCc1nc2cc(S(=O)(=O)N(C)C)ccc2n1CC | 6.31 µM [rising, single point] | –
CNC1=C(N(C(C)=O)c2ccc(Br)cc2)C(=O)c2ccccc2C1=O | 14.6 µM [falling, partial curve] | –

SMILES | AC50 [1] | AC50 [2]
CCN(CC)C(=S)SCC(=O)Nc1nc(=O)c2ccccc2s1 | 3.66 µM [falling, full curve] | –
Cc1ccc(N(CC(=O)Nc2ccc3c(c2)OCCO3)S(=O)(=O)c2c(C)noc2C)cc1 | 2.24 µM [falling, partial curve, poor fit] | –
COCCNc1nc(-c2ccccc2)nc2c1oc1ccccc12 | 3.55 µM [falling, partial curve, poor fit] | 5.01 µM [rising, full curve, poor fit]
Cc1ccc(NC(=O)c2cnc(SCC(=O)NCC3CCCO3)n(C)c2=O)cc1C (configuration not stated) | 14.6 µM [falling, partial curve, poor fit] | –
COc1ccc(N2C(=O)C3CCCN3C2c2ccccc2)cc1 (configuration not stated) | 11.2 µM [rising, partial curve, poor fit] | –
O=CN1CCCN(Cc2nc(-c3cccc(Cl)c3)no2)CC1 | 3.55 µM [rising, full curve, poor fit] | –
COc1cc(NC(=O)NC(C)c2c(-n3cccc3)sc3c2CCN(C)C3)cc(OC)c1 (configuration not stated) | 15.8 µM [falling, single point] | –
C=CCc1cccc(CNc2nc3ccccc3n2CC)c1O | 2.51 µM [rising, partial curve, poor fit] | –
NNC(=O)c1cc(C2CC2)nc2ccc(Br)cc12 | 35.5 µM [rising, single point] | –
CCc1ccc(/C=C2/SC(=S)N(CCC(=O)Nc3cccnc3)C2=O)cc1 | 17.8 µM [falling, partial curve] | –
Clc1cccc(Cl)c1CNc1ccc(N2CCCC2)cc1 | 35.5 µM [falling, single point] | –
Cc1cc(NC(=O)CCC(=O)N(CC(=O)NCC2CCCO2)c2ccc(F)c(Cl)c2)no1 (configuration not stated) | 5.62 µM [rising, single point] | –
Cc1[nH]c(=O)[nH]c(=O)c1S(=O)(=O)N1CCCC(C(=O)NCc2ccco2)C1 (configuration not stated) | 16.4 µM [falling, partial curve] | 29.1 µM [rising, partial curve, poor fit]
O=C(O)c1ccccc1NS(=O)(=O)c1cccc(-n2sc3ccccc3c2=O)c1 | 8.91 µM [falling, partial curve, poor fit] | –
Cc1[nH]n(-c2ccccc2)c(=O)c1C1(C(F)(F)F)C(=O)N(c2ccccc2)C2=C1C(=O)CC(C)(C)C2 (configuration not stated) | 29.1 µM [falling, partial curve, poor fit] | –
C[C@@H]1CN([C@@H](C)CO)C(=O)c2cc(NC(=O)CCC(F)(F)F)ccc2O[C@H]1CN(C)S(=O)(=O)c1ccc(Cl)cc1 | 16.4 µM [rising, single point] | –
O=CN/N=C/c1c(O)ccc2ccccc12 | 2.24 µM [falling, full curve] | –
S=C(c1ccc(N2CCOCC2)cc1)N1CCOCC1 | 6.51 µM [falling, partial curve, poor fit] | –
CCOc1ccc(-n2cc(-c3ccccc3)c3c(N4CCC(C)CC4)ncnc32)cc1 | 20 µM [rising, partial curve, poor fit] | –
Cc1ccc(C2CC(c3cccc(Br)c3)Nc3nnnn32)cc1 (configuration not stated) | 29.1 µM [falling, single point] | 20.6 µM [rising, partial curve, poor fit]
O=c1oc2ccc(Cl)cc2nc1/C=C(\O)c1ccco1 | 3.98 µM [rising, single point] | –

Structural class, the entries above with a thiophene ring, fused or not.
SMILES | AC50 [1] | AC50 [2]
Cc1ccsc1/C=N/n1c(-c2ccccc2)n[nH]c1=S | 0.82 µM [falling, full curve, poor fit] | –
CC(=O)Nc1ccccc1OCc1nnc(-c2cccs2)o1 | 4.11 µM [rising, single point] | –
COc1cc(NC(=O)NC(C)c2c(-n3cccc3)sc3c2CCN(C)C3)cc(OC)c1 (configuration not stated) | 15.8 µM [falling, single point] | –

Next part

SMILES | AC50 [1] | AC50 [2]
CC(OC(=O)c1ccc2c(c1)OCO2)C(=O)NC1CCCCC1C (configuration not stated) | 0.82 µM [falling, partial curve, poor fit] | –
CCOc1ccc(NC(=O)C(c2ccccn2)N(C(=O)CCl)c2ccc(OC)cc2)cc1 (configuration not stated) | 0.58 µM [rising, full curve] | –
O=C(CCC1COc2ccccc2O1)NCC1COc2ccccc2O1 (configuration not stated) | 2.59 µM [rising, partial curve, poor fit] | –
Cc1cccc(N(CC(=O)NCc2ccco2)C(=O)CCC(=O)Nc2ccccn2)c1 | 16.4 µM [falling, single point] | –
COc1ccccc1NC(=O)c1c([N+](=O)[O-])c(C(C)(C)C)nn1C | 0.112 µM [rising, full curve, poor fit] | –
Fc1ccc(-n2nnc(-c3ccnc4ccccc34)n2)cc1 | 35.5 µM [falling, single point] | –
CC(C)NC(=O)COC(=O)c1ccc(NS(=O)(=O)c2ccc3c(c2)OCCO3)cc1 | 0.103 µM [falling, full curve, poor fit] | –
O=C(N/N=C/c1ccc2c(c1)OCO2)c1cccc2ccccc12 | 1.58 µM [falling, full curve, poor fit] | –
CCOC(=O)c1ccc(NC(=O)CN(c2ccc(C)cc2)S(=O)(=O)c2c(C)n[nH]c2C)cc1 | 20 µM [falling, single point] | –
Cc1cc(-n2c(C)cc(C(=O)CSc3nc4ccccc4c(=O)n3Cc3ccco3)c2C)no1 | 6.51 µM [rising, single point] | –
COC(=O)C(CCCCNC(=O)c1ccc([N+](=O)[O-])cc1)NC(=O)c1ccc([N+](=O)[O-])cc1 (configuration not stated) | 3.26 µM [rising, single point] | –
O=C(Nc1ccc(Cl)c(Cl)c1)c1ccc(Cn2cc(Cl)cn2)cc1 | 20.6 µM [falling, single point] | 20.6 µM [rising, partial curve, poor fit]
CCC1(C)Cc2c(sc3nc(SC)nc(NCCN(C)C)c23)CO1 (configuration not stated) | 6.51 µM [falling, single point] | –
Cn1nccc1C(=O)Nc1ccn(C23CC4CC(CC(C4)C2)C3)n1 | 3.26 µM [rising, partial curve, poor fit] | –
NNC(=O)CSCc1ccc(Cl)cc1Cl | 15.8 µM [falling, partial curve, poor fit] | –
COc1cc2c(cc1OC)C(COc1ccc(F)cc1)NCC2 (configuration not stated) | 11.2 µM [falling, single point] | –
CCCCCn1c(N)c(-c2nc3ccccc3o2)c2c([N+](=O)[O-])nn(C)c(=O)c21 | 0.206 µM [rising, full curve, poor fit] | –
CC(=O)c1ccccc1NC(=O)C1CC(=O)N(c2ccc3c(c2)OCCO3)C1 (configuration not stated) | 29.1 µM [rising, single point] | –
c1ccc(-c2noc(-c3ccco3)n2)nc1 | 29.1 µM [falling, single point] | –
